# Test results from US11479578B2, “Protein purification and virus inactivation with alkyl glycosides” (priority 2017, dated 2022).
# Several values for one entry are separate records, joined by “and”; a condition that tells them apart may be missing. Identical values can stand only once.
# Experiments:
# host cell DNA = system: host cell DNA; set-up: species or system Chinese Hamster Ovary (CHO) cells
# host cell protein = system: host cell protein; set-up: species or system Chinese Hamster Ovary (CHO) cells
# host cell DNA (HC DNA) = system: host cell DNA (HC DNA); set-up: species or system Chinese Hamster Ovary (CHO) cells
# VWF propeptide = experiment: Anion exchange chromatography (Poros XQ) with OG in wash step 2: VWF propeptide clearance; details: 60 mM OG in wash step 2 buffer
structure (smiles),measurement,setting,value
"CCCCCCCCO[C@@H]1O[C@H](CO)[C@@H](O)[C@H](O)[C@H]1O [OG, n-octyl-beta-D-glucopyranoside]",better host cell DNA clearance compared to PS80/TNBP treatment,host cell DNA,7.4 fold
same,host cell DNA clearance across the purification step,host cell DNA,1700 fold
same,host cell DNA in the eluate fraction,host cell DNA,180 pg/mL
same,host cell DNA purification factor,host cell DNA,"about 25,000"
same,better host cell protein clearance compared to PS80/TNBP treatment,host cell protein,1.9 fold
same,host cell protein in the eluate,host cell protein,117 ppm
same,normalized host cell protein clearance across the step,host cell protein,1270 fold
same,host cell DNA content lower than in buffer control,host cell DNA (HC DNA),126 fold
same,host cell DNA content lower than in the PS80/TNBP control,host cell DNA (HC DNA),214 fold
same,Amount VWF propeptide in eluate (relative to rD′D3-FP),VWF propeptide,"6,228 ppm"
same,Reduction factor (relative to harvest material),VWF propeptide; VWF propeptide,~150 and 148
